Test results as given in article PMC11520566, “Discovery of pyrazole-based analogs as CDK2 inhibitors with apoptotic-inducing activity: design, synthesis and molecular dynamics study” (RSC Advances, 2024).

What was measured:
[1] = test system: HCT-116 cell line; assay: MTT cell viability assay; settings: Homo sapiens, HCT-116, read-out: IC50 (cytotoxicity, MTT)
[2] = in vitro; settings: human

`CN[C@@H]1C[C@H]2O[C@@](C)([C@@H]1OC)n1c3ccccc3c3c4c(c5c6ccccc6n2c5c31)C(=O)NC4` [staurosporine, reference compound] gave an IC50 [1] of 7.02 µM and an IC50 [2] of 28.9 µM.
